PubChem BioAssay AID248 (DTP/NCI, 2004)
The list shows only some results of the screen, not a fair sample: it gathers tests that were run many times, whatever their T/C, doses with no T/C, and many T/C values between a quarter and a half above the control. Other doses and runs of a compound stand elsewhere. T/C: endpoint of the treated group in % of that of the vehicle group. Some entries give survivors of the animals treated and no T/C: the source files T/C as zero there, which appears to mark a toxic dose or a test without result, not a measured value. Some survivor counts are full or nearly so, which does not show that the dose was tolerated: survival well below the control is almost never listed, so the zero probably covers shortened survival too. Survivors were counted at the toxicity check, usually on the fifth day, unless a day is given; later deaths do not show. Schedules are NCI's codes, taken here to give the interval after Q, in days (D) or hours (H), and the number of doses after X. Some schedule codes hold Z or #, which are not explained here. Some structures stand for samples that the source files as different forms (salt, stereo form or complex); doses refer to the form tested. Counts like (3×) stand for listed records that agree. Some doses were run more than once; their values stand side by side, smallest first. Where survival is the endpoint, this PubChem deposit counts one and a half times the control or more as active, and values a quarter to a half above the control carry no call in these data; other NCI protocols may use other cut-offs.

Test system: L1210 leukemia ip in BDF1 mice, survival T/C
Assay: NCI In Vivo Anticancer Drug Screen. Data for tumor model L1210 Leukemia (intraperitoneal) in B6D2F1 (BDF1) mice
Details: T/C endpoint: mean survival time, higher T/C = longer survival
[1] = dose: 300.0 mg/kg/injection, schedule: Q01DX001 (ip), vehicle: saline
[2] = dose: 200.0 mg/kg/injection, schedule: Q01DX009 (ip), vehicle: Klucel (hydroxypropylcellulose) (HPC)
[3] = dose: 400.0 mg/kg/injection, schedule: Q01DX009 (ip), vehicle: Klucel (hydroxypropylcellulose) (HPC)
[4] = dose: 100.0 mg/kg/injection, schedule: Q04DX002 (ip), vehicle: saline with Tween-80
[5] = dose: 200.0 mg/kg/injection, schedule: Q04DX002 (ip), vehicle: saline with Tween-80
[6] = dose: 400.0 mg/kg/injection, schedule: Q04DX002 (ip), vehicle: saline with Tween-80
[7] = dose: 400.0 mg/kg/injection, schedule: Q04DX003 (ip), vehicle: saline
[8] = dose: 200.0 mg/kg/injection, schedule: Q04DX003 (ip), vehicle: Klucel (hydroxypropylcellulose) (HPC)

## CN(Cc1ccc2nc(N)[nH]c(=O)c2c1)c1ccc(C(=O)NC(CCC(=O)O)C(=O)O)cc1 (stereo not given)
dose: 200.0 mg/kg/injection, schedule: Q01DX009 (ip), vehicle: water
  survivor count: 2 of 6
dose: 400.0 mg/kg/injection, schedule: Q04DX003 (ip), vehicle: water
  survivor count: 0 of 6

## NC1CCC(c2ccccc2)(c2ccccc2)C1=O (stereo not given)
[1]
  survivor count: 1 of 6

## COc1cc(/C=C/[N+](=O)[O-])ccc1O
[2]
  survivor count: 4 of 6
[3]
  survivor count: 0 of 6

## NC1(C(=O)O)CCC(N)(C(=O)O)CC1 (stereo not given)
[1]
  survivor count: 1 of 6

## c1cc[c]([Sn]([S]c2ccccn2)([c]2ccccc2)[c]2ccccc2)cc1
[4]
  survivor count: 1 of 3
[5]
  survivor count: 0 of 3
[6]
  survivor count: 0 of 3

## N#Cc1cn(C2OC(CO)C(O)C2O)c2nc(Cl)nc(N)c12 (stereo not given)
dose: 12.5 mg/kg/injection, schedule: Q01DX005 (ip), vehicle: saline
  T/C: 128 % of control
dose: 50.0 mg/kg/injection, schedule: Q01DX005 (ip), vehicle: saline
  survivor count: 1 of 6
dose: 50.0 mg/kg/injection, schedule: Q01DX009 (ip), vehicle: saline
  survivor count: 1 of 6
dose: 100.0 mg/kg/injection, schedule: Q01DX005 (ip), vehicle: saline
  survivor count: 0 of 6
dose: 200.0 mg/kg/injection, schedule: Q01DX005 (ip), vehicle: saline
  survivor count: 0 of 6

## CC(=O)c1ccccc1OB(F)F
dose: 400.0 mg/kg/injection, schedule: Q01DX001 (ip), vehicle: saline
  survivor count: 1 of 6

## [Br][V]([Br])[Br]
dose: 50.0 mg/kg/injection, schedule: Q01DX009 (ip), vehicle: saline sonified
  survivor count: 3 of 6
dose: 100.0 mg/kg/injection, schedule: Q01DX009 (ip), vehicle: saline sonified
  survivor count: 0 of 6
dose: 200.0 mg/kg/injection, schedule: Q04DX003 (ip), vehicle: saline
  survivor count: 1 of 6
[7]
  survivor count: 0 of 6

## O=C(NCc1ccccc1)Sc1ccccc1
dose: 175.0 mg/kg/injection, schedule: Q01DX001 (ip), vehicle: Klucel (hydroxypropylcellulose) (HPC)
  survivor count: 1 of 6
dose: 350.0 mg/kg/injection, schedule: Q01DX001 (ip), vehicle: Klucel (hydroxypropylcellulose) (HPC)
  survivor count: 0 of 6

## O=C(CCl)OCCI
dose: 50.0 mg/kg/injection, schedule: Q04DX003 (ip), vehicle: acetone
  survivor count: 6 of 6
dose: 100.0 mg/kg/injection, schedule: Q04DX003 (ip), vehicle: acetone
  survivor count: 5 of 6
dose: 200.0 mg/kg/injection, schedule: Q01DX001 (ip), vehicle: acetone
  survivor count: 1 of 6
dose: 400.0 mg/kg/injection, schedule: Q01DX001 (ip), vehicle: acetone
  survivor count: 0 of 6

## c1ccc2c(C3=NCCO3)cccc2c1
dose: 100.0 mg/kg/injection, schedule: Q01DX009 (ip), vehicle: Klucel (hydroxypropylcellulose) (HPC)
  survivor count: 6 of 6
[2]
  survivor count: 6 of 6
[3]
  survivor count: 3 of 6

## COc1cc2c(cc1OC)C1(NCC2)C(=O)Nc2c(C)cc(Cl)cc21 (stereo not given)
dose: 200.0 mg/kg/injection, schedule: Q04DX002 (ip), vehicle: saline
  T/C: 135 % of control

## N#CCCCOc1cccc([N+](=O)[O-])c1
dose: 400.0 mg/kg/injection, schedule: Q01DX009 (ip), vehicle: saline with Tween-80
  survivor count: 1 of 6

## CC(=O)/C=N/Nc1ccccc1
dose: 200.0 mg/kg/injection, schedule: Q04DX003 (ip), vehicle: carboxymethylcellulose (CMC)
  survivor count: 1 of 6
dose: 400.0 mg/kg/injection, schedule: Q04DX003 (ip), vehicle: carboxymethylcellulose (CMC)
  survivor count: 0 of 6

## O=c1c2ccccc2[nH]c2ncccc12
dose: 400.0 mg/kg/injection, schedule: Q04DX002 (ip), vehicle: Klucel (hydroxypropylcellulose) (HPC)
  survivor count: 0 of 3

## COC(=O)C(Br)[P+](c1ccccc1)(c1ccccc1)c1ccccc1 (stereo not given)
dose: 75.0 mg/kg/injection, schedule: Q01DX001 (ip), vehicle: carboxymethylcellulose (CMC)
  survivor count: 0 of 6
dose: 150.0 mg/kg/injection, schedule: Q01DX001 (ip), vehicle: carboxymethylcellulose (CMC)
  survivor count: 0 of 6
dose: 300.0 mg/kg/injection, schedule: Q01DX001 (ip), vehicle: carboxymethylcellulose (CMC)
  survivor count: 0 of 6

## CCC[N+](C)(C)C1CCCCC1
dose: 150.0 mg/kg/injection, schedule: Q01DX001 (ip), vehicle: saline
  survivor count: 0 of 6 and 2 of 6
[1]
  survivor count: 0 of 6 (2×)

## Cc1ccc(Nc2nc(N)nc(N)c2N)cc1C
dose: 50.0 mg/kg/injection, schedule: Q01DX Z (ip), vehicle: saline
  survivor count: 1 of 6
dose: 100.0 mg/kg/injection, schedule: Q01DX Z (ip), vehicle: saline
  survivor count: 0 of 6
dose: 200.0 mg/kg/injection, schedule: Q01DX Z (ip), vehicle: saline
  survivor count: 0 of 6

## CCOP(=O)(OCC)/C(=C\c1ccccc1)C(=O)c1ccccc1
[8]
  survivor count: 3 of 6

## O=[N+]([O-])/C=C/C=C/c1ccco1
dose: 50.0 mg/kg/injection, schedule: Q04DX002 (ip), vehicle: saline with Tween-80
  survivor count: 1 of 3
[4]
  survivor count: 1 of 3
[5]
  survivor count: 1 of 3
[6]
  survivor count: 0 of 3

## CCCNC(C)(C)C(SSSC(c1cccs1)C(C)(C)NCCC)c1cccs1 (stereo not given)
dose: 100.0 mg/kg/injection, schedule: Q04DX003 (ip), vehicle: Klucel (hydroxypropylcellulose) (HPC)
  survivor count: 6 of 6
dose: 115.0 mg/kg/injection, schedule: Q01DX009 (ip), vehicle: saline
  survivor count: 6 of 6
[8]
  survivor count: 6 of 6
dose: 400.0 mg/kg/injection, schedule: Q04DX003 (ip), vehicle: Klucel (hydroxypropylcellulose) (HPC)
  survivor count: 2 of 6

## O=[N+]([O-])c1ccc(S(=O)(=O)N2CCN(S(=O)(=O)c3ccc([N+](=O)[O-])cc3)C2)cc1
[2]
  survivor count: 6 of 6

## C1CCC(CCNCCC2CCCCC2)CC1
dose: 40.0 mg/kg/injection, schedule: Q01DX001 (ip), vehicle: saline
  survivor count: 2 of 6
dose: 80.0 mg/kg/injection, schedule: Q01DX001 (ip), vehicle: saline
  survivor count: 1 of 6

## O=C(Nc1cccc(Cl)c1Cl)Sc1ccccc1O
[3]
  survivor count: 2 of 6

## C=C(Br)CNC(C)=O
dose: 100.0 mg/kg/injection, schedule: Q01DX001 (ip), vehicle: Klucel (hydroxypropylcellulose) (HPC)
  survivor count: 1 of 6
dose: 200.0 mg/kg/injection, schedule: Q01DX001 (ip), vehicle: Klucel (hydroxypropylcellulose) (HPC)
  survivor count: 0 of 6
dose: 200.0 mg/kg/injection, schedule: Q01DX009 (ip), vehicle: saline
  survivor count: 0 of 6
dose: 400.0 mg/kg/injection, schedule: Q01DX001 (ip), vehicle: Klucel (hydroxypropylcellulose) (HPC)
  survivor count: 0 of 6
dose: 400.0 mg/kg/injection, schedule: Q01DX009 (ip), vehicle: saline
  survivor count: 0 of 6
[7]
  survivor count: 0 of 6
